Our source for the binding signal values is paper PMC7819943, “Rice protein-binding microarrays: a tool to detect cis-acting elements near promoter regions in rice”.

Chains of the proteins cited; added tags and fusions are not shown.
UniProt Q0JBA9, entry or part of it: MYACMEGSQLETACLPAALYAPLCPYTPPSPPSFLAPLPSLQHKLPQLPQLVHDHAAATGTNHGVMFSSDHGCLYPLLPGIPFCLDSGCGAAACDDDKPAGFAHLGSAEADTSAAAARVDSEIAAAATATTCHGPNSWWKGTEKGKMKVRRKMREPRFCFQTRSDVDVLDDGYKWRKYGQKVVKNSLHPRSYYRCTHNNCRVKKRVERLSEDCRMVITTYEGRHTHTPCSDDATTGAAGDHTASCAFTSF

The list shows a part of the results.

This assay has as its target OsWRKY34 (Oryza sativa, UniProt Q0JBA9 1-250). The assay can be described thus: protein-binding microarray (RPBM); PBS, 2% BSA, 51.3 ng/ul salmon testes DNA, 50 uM zinc acetate, 200 nM TF, 25 C, 1 h; high values mean tight binding. The note with it: protein: recombinant; tags: N-terminal polyhistidine and DsRed monomer fusion (pET32a); label: CyDye5-dUTP incorporated in the synthesized complementary strand; 3' TTTTT single-stranded linker to array surface; dsDNA, one strand shown. Summed up: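 The binding signal is fluorescence intensity per feature, in arbitrary units, read on an Axon 4000B scanner. Polyhistidine- and DsRed-tagged transcription factors (N-terminal fusions) from E. coli BL21-CodonPlus were purified on Ni–NTA and applied at 200 nM for 1 h at 25 °C to a double-stranded, BSA-blocked custom Agilent array in buffer with 50 µM zinc acetate.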
For “CCCACCGTCGAGCGCCACCAACCCGCCGCCACCGTGCGCCCGGAGTCACCTAGTGCAG”, the binding signal is 8240 fluorescence intensity (a.u.).

Take “GTGTTTGTGGTGGGCGGCCTTGGAGGATTGTCACCACCGGCGGAGTCACCTAGTGCAG”: the binding signal is 9470 fluorescence intensity (a.u.).

In the case of “TTTGTCTTTTCTTCTTTTTCTTGGCATAAGCCAGTCTGTCCGGAGTCACCTAGTGCAG”, the binding signal was 9680 fluorescence intensity (a.u.).

Regarding “ACGATGAGGAAGATCTATGCCCTTGCCTCTATGTCATTAACGGAGTCACCTAGTGCAG”, the binding signal was 8920 fluorescence intensity (a.u.).

With “CATCCCATTGCCCGCACTCTCTCGCTCTCCCACTCGCACCCGGAGTCACCTAGTGCAG”, the binding signal was 8660 fluorescence intensity (a.u.).

On to “TTCCTGTCATCATGATGCACGCGTGCATTGCTATTTACTACGGAGTCACCTAGTGCAG”, for which the binding signal is 8770 fluorescence intensity (a.u.).

“ACGTTTCTATATATTTGGTATGAGCCCATATTTATCTTTGCGGAGTCACCTAGTGCAG”: the binding signal was 13400 fluorescence intensity (a.u.).

Consider “TCCCAAGATGCTGCCATGGCTGCCTGTTCGAGTCACTTGCCGGAGTCACCTAGTGCAG”, for which the binding signal was 9240 fluorescence intensity (a.u.).

On to “TCTGTCATCTAGCGCCCGCGTTCACATCCTGACATCGCCTCGGAGTCACCTAGTGCAG”, for which the binding signal is 10400 fluorescence intensity (a.u.).

In the case of “CTTTTTCCTTGCAATCGTGATTCTTTTTTTTTTCCCTTTTCGGAGTCACCTAGTGCAG”, the binding signal is 17400 fluorescence intensity (a.u.).

Consider “AGGTTGGTGATTCAGAGATGTCGAGACGTGTGTTCTTTTGCGGAGTCACCTAGTGCAG”, for which the binding signal was 9200 fluorescence intensity (a.u.).

For the sequence “CCTCTCTTTCTCTTCTCTCTACTAACGGTAATCACATGAGCGGAGTCACCTAGTGCAG”, the binding signal was 8110 fluorescence intensity (a.u.).

For the sequence “TCCTGCAACTGTTCTTGAGACTGGGTATGTTATCTTCAGCCGGAGTCACCTAGTGCAG”, the binding signal was 8380 fluorescence intensity (a.u.).

For “AGCACGCACGCACACTTTACTCTCTCCTTTTTCCGATCGACGGAGTCACCTAGTGCAG”, the binding signal was 10100 fluorescence intensity (a.u.).

“TGCTTTATACCAGACTAGCTGTGCCTCTTATCGTTGTTTCCGGAGTCACCTAGTGCAG”: the binding signal was 12200 fluorescence intensity (a.u.).

Regarding “CGCTCTCGCCTGCAGTATTTGTTCCATTGCCGCGCACCACCGGAGTCACCTAGTGCAG”, the binding signal was 12900 fluorescence intensity (a.u.).

Take “CAATTTTGTTTTTACAACTTTTTCACATGAGTTCATTTATCGGAGTCACCTAGTGCAG”: the binding signal is 8650 fluorescence intensity (a.u.).

Consider “CCTCCAACCTCGTGAGCTCCGCCTCCACCTCGCTGCTGCTCGGAGTCACCTAGTGCAG”, for which the binding signal was 8140 fluorescence intensity (a.u.).

Turning to “AACTCTCTTATACTATCTTTACTCTAGCAACAAACTCAATCGGAGTCACCTAGTGCAG”, the binding signal was 8080 fluorescence intensity (a.u.).

Regarding “TGTTCTTTGCAGTTGCTGTTTATTCATCTTGGCCAAGTGCCGGAGTCACCTAGTGCAG”, the binding signal is 8910 fluorescence intensity (a.u.).

For “GGACTTATTTTGCACCGGTTTTAACAGTTGAGGGACCTGTCGGAGTCACCTAGTGCAG”, the binding signal was 10300 fluorescence intensity (a.u.).

Regarding “CGAACGGTTTAACATATTTAAAAAAGTCAACGGCGTCAAACGGAGTCACCTAGTGCAG”, the binding signal was 8310 fluorescence intensity (a.u.).

Turning to “CATGAAAATTTTGGTGGGATAGGGATGGGGAATTGAGAAACGGAGTCACCTAGTGCAG”, the binding signal is 10400 fluorescence intensity (a.u.).

As for “ATCAAAACTTTTCTGCACACATAAACTTTCAATTTTTTCGCGGAGTCACCTAGTGCAG”, the binding signal was 8930 fluorescence intensity (a.u.).

With “GTCGTACATCGGGTGGATATATGTTACTTCACATTTTTTTCGGAGTCACCTAGTGCAG”, the binding signal is 10000 fluorescence intensity (a.u.).

“ATATAATTCCGTTGAACGGTCTTGCTTGTGCTTTGGATAACGGAGTCACCTAGTGCAG”: the binding signal was 8650 fluorescence intensity (a.u.).

“GGGGACCGGTTGTATCTGGTTTTGGGGTTTAAGGACGAAACGGAGTCACCTAGTGCAG”: the binding signal was 10200 fluorescence intensity (a.u.).

Turning to “CTTCCGACATCCGGTTAAACATCCGATACGACACCCCAAACGGAGTCACCTAGTGCAG”, the binding signal is 8040 fluorescence intensity (a.u.).

As for “GCCCAATGCATCATTTCCTTCGTACGTTGCAATCTAGGCCCGGAGTCACCTAGTGCAG”, the binding signal was 9190 fluorescence intensity (a.u.).

Consider “AAATCAAAGCTATACTGTTGCATACCATATTTGTGGATACCGGAGTCACCTAGTGCAG”, for which the binding signal is 8650 fluorescence intensity (a.u.).

For “CGTCGGTGTAGCCTGCCGCCTCTAATGCCTTCCTCAGCACCGGAGTCACCTAGTGCAG”, the binding signal was 8470 fluorescence intensity (a.u.).

“CCGGTCTCGTCGACATCGATCATTCTCGCTCCGCCCAGCCCGGAGTCACCTAGTGCAG”: the binding signal was 8310 fluorescence intensity (a.u.).

For “TCGTTAATTGTACTTCTTGTTTCTGAAACTTTCCGGAGACCGGAGTCACCTAGTGCAG”, the binding signal is 8150 fluorescence intensity (a.u.).

With “GCTGCTGTCTCACACTCTCTCTCTCCCCTCCCTTTTCGTCCGGAGTCACCTAGTGCAG”, the binding signal is 9670 fluorescence intensity (a.u.).

Take “TAGGAGAATTTCTCACTCGTGAGTGGGTGTGGGTTTTCTACGGAGTCACCTAGTGCAG”: the binding signal was 12000 fluorescence intensity (a.u.).

Turning to “AAGCCCGACGACGGCGCTTGGCGATGGGTGGGGAGAAGGCCGGAGTCACCTAGTGCAG”, the binding signal was 8730 fluorescence intensity (a.u.).

Take “GTTTGACTTTTATAACACAATGGTATAATTTGAGTAAATGCGGAGTCACCTAGTGCAG”: the binding signal was 8400 fluorescence intensity (a.u.).

In the case of “ATAGCCCGTCTTTGTTTAATTTCTATGAGCAGTCTACCCACGGAGTCACCTAGTGCAG”, the binding signal was 8980 fluorescence intensity (a.u.).

In the case of “TTGGCTTTCTCTCTCTCTTTTTCTTTTTCTTTCTTTCTTTCGGAGTCACCTAGTGCAG”, the binding signal is 9580 fluorescence intensity (a.u.).

Consider “ACATCCTCTTTTCTTTTTCTTTTTAACGCATTGACATGACCGGAGTCACCTAGTGCAG”, for which the binding signal is 9870 fluorescence intensity (a.u.).

With “TCGCAGGTTCGAGACCTGCATGGGCCATTATTTTTTTTTTCGGAGTCACCTAGTGCAG”, the binding signal was 8100 fluorescence intensity (a.u.).

As for “GCCACCACGCCGCCCTGCTGCTGCTGCCTCGGTTAAACGGCGGAGTCACCTAGTGCAG”, the binding signal is 8790 fluorescence intensity (a.u.).
